# Assay results published in the supplement of paper PMC6411743.
# ± gives the standard deviation of the averaged measurements. This is one part of the list.
# Molecular target: T1, A0A087X1S7|P09326 (UniProt P09326)
# T1 sequence (whole entry): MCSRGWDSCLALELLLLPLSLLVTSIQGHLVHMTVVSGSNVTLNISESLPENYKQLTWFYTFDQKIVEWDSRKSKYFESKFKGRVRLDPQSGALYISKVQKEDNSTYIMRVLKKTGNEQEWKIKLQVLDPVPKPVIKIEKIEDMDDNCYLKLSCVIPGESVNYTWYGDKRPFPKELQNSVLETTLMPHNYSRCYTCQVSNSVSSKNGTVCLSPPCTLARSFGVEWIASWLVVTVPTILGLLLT
# Experiment: NP40-soluble protein abundance relative to vehicle (solubility fold change) (ratio); higher = more soluble protein in presence of GTP
# Description: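 Solubility proteome profiling in Jurkat crude lysate. Lysate was treated with Mg-GTP (0.1-10 mM) for 10 min at room temperature and 3 min at 37 °C, then solubilised with 0.8% NP40 and benzonase, followed by ultracentrifugation. Proteins were quantified by TMT10 LC-MS/MS; the value is the NP40-soluble abundance relative to the NP40-processed vehicle, from 3 independent experiments.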
smiles,measurement,setting,value
Nc1nc2c(ncn2[C@@H]2O[C@H](COP(=O)(O)OP(=O)(O)OP(=O)(O)O)[C@@H](O)[C@H]2O)c(=O)[nH]1 [guanosine triphosphate],NP40-soluble protein abundance,concentration: 0.1mM,0.888 ± 0.061
same,NP40-soluble protein abundance,concentration: 0.5mM,0.896 ± 0.08
same,NP40-soluble protein abundance,concentration: 1mM,0.972 ± 0.092
same,NP40-soluble protein abundance,concentration: 2mM,0.927 ± 0.12
same,NP40-soluble protein abundance,concentration: 4mM,0.901 ± 0.11
same,NP40-soluble protein abundance,concentration: 6mM,0.937 ± 0.1
same,NP40-soluble protein abundance,concentration: 8mM,0.894 ± 0.091
same,NP40-soluble protein abundance,concentration: 10mM,0.931 ± 0.079
